## Primary screen of a compound library

Amino acid sequences for entries named in this document (tags omitted). Residues count along the entry.
UniProt A4I591, 1-473: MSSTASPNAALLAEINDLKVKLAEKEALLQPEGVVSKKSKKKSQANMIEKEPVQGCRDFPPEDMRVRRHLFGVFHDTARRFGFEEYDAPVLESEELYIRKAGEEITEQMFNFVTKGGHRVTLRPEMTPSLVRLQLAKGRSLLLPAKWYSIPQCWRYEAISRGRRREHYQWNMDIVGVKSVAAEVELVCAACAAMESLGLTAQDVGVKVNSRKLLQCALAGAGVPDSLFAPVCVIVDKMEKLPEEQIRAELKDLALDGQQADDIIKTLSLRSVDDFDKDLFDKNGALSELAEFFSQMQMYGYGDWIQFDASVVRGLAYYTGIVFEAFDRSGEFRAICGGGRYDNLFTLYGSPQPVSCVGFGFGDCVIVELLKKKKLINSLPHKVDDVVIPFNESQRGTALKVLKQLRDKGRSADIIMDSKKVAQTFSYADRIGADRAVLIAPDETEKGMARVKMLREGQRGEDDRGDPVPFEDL
UniProt P9WNZ1, whole entry: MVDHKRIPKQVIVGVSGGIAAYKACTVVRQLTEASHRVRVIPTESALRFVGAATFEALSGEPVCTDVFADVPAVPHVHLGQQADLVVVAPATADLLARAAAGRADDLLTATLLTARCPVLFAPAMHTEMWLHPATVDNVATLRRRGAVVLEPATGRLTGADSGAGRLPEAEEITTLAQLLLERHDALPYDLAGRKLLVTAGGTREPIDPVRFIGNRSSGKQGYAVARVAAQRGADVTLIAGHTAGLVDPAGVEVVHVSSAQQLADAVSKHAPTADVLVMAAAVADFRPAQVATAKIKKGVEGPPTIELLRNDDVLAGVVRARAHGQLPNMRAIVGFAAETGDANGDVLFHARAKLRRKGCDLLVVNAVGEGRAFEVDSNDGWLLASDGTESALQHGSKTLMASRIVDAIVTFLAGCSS

LiHisRS: 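Histidine-tRNA ligase, Leishmania infantum (UniProt A4I591). Enzyme assay of histidyl-tRNA synthetase; the read-out is not stated. Concentration: 30 µM. Direction is inferred from retests: higher values go with stronger inhibition. The assay is labelled LdHisRS but filed under L. infantum. Size under these conditions: about 69,000 compounds, about 410 of them at 50% or above in at least one test.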
Leishmania in macrophages: 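Cell assay of Leishmania donovani living inside macrophages; the read-out is not stated. Concentration: 30 µM. The record gives no direction; compounds that gave an IC50 in retests scored well above the rest, so higher reads as stronger inhibition. Size under these conditions: about 69,000 compounds, about 1,000 of them at 50% or above in at least one test.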
CoaBC: 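Coenzyme A biosynthesis protein CoaBC, Mycobacterium tuberculosis (UniProt P9WNZ1). Enzyme assay of CoaBC with a phosphate dye (Biomol Green) read at 650 nm. Tested at 30 µM. Higher reads as stronger inhibition, judged from the few compounds that gave an IC50. Most strong results did not repeat in a second test. Of about 67,000 compounds tested this way, about 40 (0.06%) reached 50% or more in at least one test.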

Values are the deposited “Percent Effect”, in %. The record does not define 0% and 100%; most values in the screen are far below 50% and negative numbers occur (in some assays of this library far below -100). The compounds are a random part of those screened.

{"compound": "CN1CCc2onc(CNc3ncccn3)c2C1.O=C(O)C(F)(F)F.O=C(O)C(F)(F)F", "Leishmania in macrophages": -23.86}
{"compound": "Cc1cnc(NC(=O)C(C)n2ccc(C(F)(F)F)n2)s1", "stereo": "centres unmarked", "LiHisRS": 22.5, "Leishmania in macrophages": 59.23, "CoaBC": 2.405}
{"compound": "CC(=O)N1Cc2ccnn2CC(C(=O)NCc2cccnc2)C1", "stereo": "centres unmarked", "LiHisRS": 8.108, "CoaBC": 2.97}
{"compound": "CC(C)CN1CCS(=O)(=O)[C@@H]2CCN(S(=O)(=O)C3CC3)CC[C@@H]21", "LiHisRS": 12.28, "CoaBC": 6.977}
{"compound": "Cc1ccc(C(=O)NC2CCN(Cc3noc(CC(C)C)n3)CC2)s1", "LiHisRS": 4.717, "Leishmania in macrophages": 21.99, "CoaBC": -5.455}
{"compound": "Cn1ccnc1CN1CCCN(C(=O)C2(C#N)CCCCC2)CC1", "LiHisRS": 29.58, "Leishmania in macrophages": 28.54}
{"compound": "Cc1nccc(C2CCCCN2Cc2ccccc2)n1", "stereo": "centres unmarked", "LiHisRS": 11.72, "Leishmania in macrophages": 10.78, "CoaBC": 4.079}
{"compound": "COCCOc1nc(-c2ccccc2Cl)no1", "LiHisRS": 19.75, "Leishmania in macrophages": -13.69, "CoaBC": 4.225}
{"compound": "CSCCCN1C[C@H](NC(=O)c2cc(C3CC3)on2)[C@@H](C2CC2)C1", "LiHisRS": 6.557, "Leishmania in macrophages": -6.34, "CoaBC": 1.794}
{"compound": "COCCN1CCc2ncnc(OC(C)C)c2CC1.O=C(O)C(F)(F)F", "Leishmania in macrophages": 25.58}
{"compound": "COCc1nnc(C(=O)N2CC(N3CCCCC3)C2)o1", "LiHisRS": 15.96, "Leishmania in macrophages": 8.655, "CoaBC": 6.061}
{"compound": "CN(C)CCOCC1CN(Cc2ccc(F)cc2)Cc2nnn(C)c21", "stereo": "centres unmarked", "LiHisRS": 12.5, "CoaBC": -6.667}
{"compound": "O=C1NCCCC12CCN(Cc1ccc(-c3ccccc3)s1)C2", "stereo": "centres unmarked", "LiHisRS": 13.33, "Leishmania in macrophages": 47.06, "CoaBC": 8.051}
{"compound": "Cc1nc(C(=O)N2CCOC(c3nc(C(C)C)n[nH]3)C2)c[nH]1", "stereo": "centres unmarked", "LiHisRS": 6.14, "Leishmania in macrophages": 11.32, "CoaBC": 0.9126}
{"compound": "O=C(NCCCO)Nc1ccccc1", "LiHisRS": 6.667, "Leishmania in macrophages": 20.86, "CoaBC": -3.186}
{"compound": "CC(C)CN1CCN(C)C2(CCN(c3nccs3)CC2)C1=O", "LiHisRS": 0}
{"compound": "CC(NC(=O)CCCc1ccc(Cl)cc1)c1n[nH]c(=O)[nH]1", "stereo": "centres unmarked", "LiHisRS": 12.5, "Leishmania in macrophages": 11.57, "CoaBC": 3.342}
{"compound": "Cc1cnn(CC2CCCCN2C(=O)CN(C)C2CC2)c1", "stereo": "centres unmarked", "LiHisRS": 18.92, "Leishmania in macrophages": 16.94, "CoaBC": 3.133}
{"compound": "CN(Cc1cccs1)C(=O)c1ccc(=O)n(C)c1", "LiHisRS": 11.29, "Leishmania in macrophages": 17.29, "CoaBC": 4.551}
{"compound": "CN(C)CCN1C(=O)CCCC12CCCN(Cc1cccs1)C2", "stereo": "centres unmarked", "LiHisRS": 13.46, "CoaBC": 3.732}
{"compound": "CN1CCCn2c(nc(CNC(=O)c3nccn3C)cc2=O)C1", "LiHisRS": 9.402, "CoaBC": -2.5}
{"compound": "Cc1oncc1C(=O)NCc1cc(=O)n2c(n1)CN(C(C)C)CCC2.O=C(O)C(F)(F)F", "Leishmania in macrophages": 13.74}
{"compound": "OC1CCN(c2ccnc(NCCc3ccccc3Cl)n2)CC1", "LiHisRS": 15.66, "Leishmania in macrophages": -1.281, "CoaBC": 7.722}
{"compound": "O=C(NCC1CC1)c1cc(Br)cnc1N1CCCCC1", "LiHisRS": 17.82, "Leishmania in macrophages": 23.32, "CoaBC": 6.311}
{"compound": "Cc1nccc([C@@H]2C[C@@H]3CCN(Cc4c(C)noc4C)C[C@H]3O2)n1", "LiHisRS": 11.93, "CoaBC": 0.6085}
{"compound": "CC(C)C(=O)N1CCC2(CCN2CC2CC2)C1.O=C(O)C(F)(F)F", "stereo": "centres unmarked", "Leishmania in macrophages": 7.679}
{"compound": "CN1CCN(Cc2ccccc2CNC(=O)c2cc(Cl)ccc2F)CC1", "LiHisRS": 28.77, "Leishmania in macrophages": 24.13, "CoaBC": -22.76}
{"compound": "O=C(CC1CSc2nccc(=O)n21)NCc1ccco1", "stereo": "centres unmarked", "LiHisRS": 8.475, "Leishmania in macrophages": 5.141, "CoaBC": -2.635}
{"compound": "COCC(O)CN(C)c1ccnc2ccc(Cl)cc12", "stereo": "centres unmarked", "LiHisRS": 9.524, "Leishmania in macrophages": -0.5723, "CoaBC": -3.883}
{"compound": "COc1ccc(N2CCN(C(=O)CCn3nnnc3C)CC2(C)C)cc1", "LiHisRS": 25, "Leishmania in macrophages": -2.103, "CoaBC": 17.57}

Some entries from above, unchanged:

{"compound": "Cc1nccc([C@@H]2C[C@@H]3CCN(Cc4c(C)noc4C)C[C@H]3O2)n1", "LiHisRS": 11.93, "CoaBC": 0.6085}
{"compound": "COc1ccc(N2CCN(C(=O)CCn3nnnc3C)CC2(C)C)cc1", "LiHisRS": 25, "Leishmania in macrophages": -2.103, "CoaBC": 17.57}

Data taken from ChEMBL document CHEMBL3988442, “University of Dundee, Small-Polar-MMV Screening Library” (2021).